The source of these data is doi:10.1101/2021.04.15.440011.

By UniProt entry, the sequences of proteins in these tests, tags left out.
UniProt P28347: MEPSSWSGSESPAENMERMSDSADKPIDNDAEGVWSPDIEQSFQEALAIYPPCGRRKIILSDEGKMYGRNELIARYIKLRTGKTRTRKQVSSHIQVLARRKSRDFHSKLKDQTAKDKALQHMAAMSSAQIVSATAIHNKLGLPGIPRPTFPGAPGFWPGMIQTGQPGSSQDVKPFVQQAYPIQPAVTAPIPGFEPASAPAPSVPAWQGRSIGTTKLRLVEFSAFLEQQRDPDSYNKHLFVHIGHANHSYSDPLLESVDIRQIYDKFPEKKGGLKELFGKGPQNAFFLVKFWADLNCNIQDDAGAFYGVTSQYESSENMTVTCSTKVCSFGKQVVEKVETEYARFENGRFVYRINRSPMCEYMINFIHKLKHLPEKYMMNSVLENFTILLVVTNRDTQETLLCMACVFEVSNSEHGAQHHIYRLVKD
UniProt Q15561: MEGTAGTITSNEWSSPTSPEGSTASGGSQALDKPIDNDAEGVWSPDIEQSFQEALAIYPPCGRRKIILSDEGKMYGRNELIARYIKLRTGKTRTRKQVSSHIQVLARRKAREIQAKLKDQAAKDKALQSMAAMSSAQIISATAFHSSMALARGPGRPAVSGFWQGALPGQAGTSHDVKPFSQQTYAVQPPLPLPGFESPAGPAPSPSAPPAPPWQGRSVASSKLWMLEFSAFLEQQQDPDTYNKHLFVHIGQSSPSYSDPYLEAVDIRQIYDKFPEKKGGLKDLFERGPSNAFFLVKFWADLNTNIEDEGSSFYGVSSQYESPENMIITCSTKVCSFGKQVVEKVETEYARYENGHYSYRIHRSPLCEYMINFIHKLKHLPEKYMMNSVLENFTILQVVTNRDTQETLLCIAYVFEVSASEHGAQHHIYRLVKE
UniProt Q9GZV5: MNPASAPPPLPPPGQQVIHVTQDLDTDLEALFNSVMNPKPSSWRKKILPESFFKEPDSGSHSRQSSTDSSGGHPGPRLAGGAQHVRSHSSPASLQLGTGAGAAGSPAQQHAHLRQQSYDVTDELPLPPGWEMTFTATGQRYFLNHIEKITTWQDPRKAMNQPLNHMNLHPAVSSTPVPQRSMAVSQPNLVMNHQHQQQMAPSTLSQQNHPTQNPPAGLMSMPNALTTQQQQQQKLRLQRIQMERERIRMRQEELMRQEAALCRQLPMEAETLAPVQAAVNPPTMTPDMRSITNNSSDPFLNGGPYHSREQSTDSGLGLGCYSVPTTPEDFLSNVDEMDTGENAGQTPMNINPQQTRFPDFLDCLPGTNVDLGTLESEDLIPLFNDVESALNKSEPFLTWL
UniProt P84022: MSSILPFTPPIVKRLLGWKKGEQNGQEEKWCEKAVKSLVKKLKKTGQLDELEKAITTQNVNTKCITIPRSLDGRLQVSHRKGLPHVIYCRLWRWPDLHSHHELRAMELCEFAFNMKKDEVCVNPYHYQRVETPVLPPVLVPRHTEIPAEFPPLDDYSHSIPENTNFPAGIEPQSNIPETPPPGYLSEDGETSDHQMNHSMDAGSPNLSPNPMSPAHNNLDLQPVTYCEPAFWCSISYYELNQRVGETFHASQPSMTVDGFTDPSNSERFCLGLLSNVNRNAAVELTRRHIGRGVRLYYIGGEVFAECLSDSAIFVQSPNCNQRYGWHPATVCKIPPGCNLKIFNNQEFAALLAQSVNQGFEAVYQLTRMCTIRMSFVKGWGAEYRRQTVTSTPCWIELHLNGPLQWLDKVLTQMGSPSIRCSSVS

These are yes or no findings as the source states them, for the method shown. Binding seen in cells or lysates may run through a third protein. Some binding calls cover weakened binding; strength is not graded here.

What all share (assay): co-IP
For assay [1], the target named is myc-TEAD1 (UniProt P28347).
For assay [2], the target named is myc-TEAD4 (UniProt Q15561).
For assay [3], the target named is TAZ (transcriptional co-activator, paralog of YAP1) (human (endogenous in HK2)) (UniProt Q9GZV5).

With HA-TAZ (from UniProt Q9GZV5 1-400), the binding result in assay [1] and in assay [2] was “binds” in each case.

For “phosphorylated mothers against decapentaplegic homolog 3 (p-SMAD3) (from UniProt P84022 1-425)”, the binding result in assay [3] was “binds”.
